No constants are given. Whether binding was seen depends on the method and setting. Some entries that bind do so weakly or less than the wild type.
Tests used:
[1] = target: T1, binary complex of FGFR1c ligand-binding domain with βKlotho ectodomain (murine; human) (UniProt Q99N32+P11362); assay: SPR competition: chimera with βKlotho-FGFR1c complex over immobilized FGF21 (competitor)
[2] = target: T1, binary complex of FGFR1c ligand-binding domain with βKlotho ectodomain (murine; human); assay: SPR competition: increasing chimera with a fixed concentration of βKlotho-FGFR1c complex over immobilized FGF21

The chains behind the UniProt entries cited, without tags or fusion partners. Where a name states a change or a piece, a line headed by the entry shows the natural chain unless it says otherwise.
UniProt Q99N32: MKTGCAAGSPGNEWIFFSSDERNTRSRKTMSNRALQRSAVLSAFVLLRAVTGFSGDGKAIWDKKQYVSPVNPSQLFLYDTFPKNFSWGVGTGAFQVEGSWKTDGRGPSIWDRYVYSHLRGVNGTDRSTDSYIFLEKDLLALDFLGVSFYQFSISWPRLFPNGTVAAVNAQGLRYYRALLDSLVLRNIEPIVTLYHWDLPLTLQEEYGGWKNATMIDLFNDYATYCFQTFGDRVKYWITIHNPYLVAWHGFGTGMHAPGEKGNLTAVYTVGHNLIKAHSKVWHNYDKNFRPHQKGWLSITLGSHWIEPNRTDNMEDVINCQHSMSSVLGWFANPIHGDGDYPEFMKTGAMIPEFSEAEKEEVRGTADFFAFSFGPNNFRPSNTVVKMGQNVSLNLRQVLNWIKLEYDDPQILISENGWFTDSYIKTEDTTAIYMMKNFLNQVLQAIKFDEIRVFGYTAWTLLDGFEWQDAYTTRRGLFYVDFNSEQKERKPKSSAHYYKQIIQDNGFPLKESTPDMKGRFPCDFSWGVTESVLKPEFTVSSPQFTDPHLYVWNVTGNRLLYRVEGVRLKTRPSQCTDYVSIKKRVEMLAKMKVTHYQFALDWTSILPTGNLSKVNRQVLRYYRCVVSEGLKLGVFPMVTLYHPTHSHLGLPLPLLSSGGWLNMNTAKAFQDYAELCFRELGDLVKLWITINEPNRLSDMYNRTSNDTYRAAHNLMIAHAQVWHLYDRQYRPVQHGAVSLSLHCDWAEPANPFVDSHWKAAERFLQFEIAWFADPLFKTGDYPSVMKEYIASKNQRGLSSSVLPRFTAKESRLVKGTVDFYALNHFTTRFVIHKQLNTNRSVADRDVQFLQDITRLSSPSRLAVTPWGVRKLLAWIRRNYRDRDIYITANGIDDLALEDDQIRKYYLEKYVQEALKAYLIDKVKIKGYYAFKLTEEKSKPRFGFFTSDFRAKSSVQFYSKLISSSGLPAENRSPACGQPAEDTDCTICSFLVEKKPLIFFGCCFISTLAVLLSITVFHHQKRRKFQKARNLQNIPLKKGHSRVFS
UniProt P11362: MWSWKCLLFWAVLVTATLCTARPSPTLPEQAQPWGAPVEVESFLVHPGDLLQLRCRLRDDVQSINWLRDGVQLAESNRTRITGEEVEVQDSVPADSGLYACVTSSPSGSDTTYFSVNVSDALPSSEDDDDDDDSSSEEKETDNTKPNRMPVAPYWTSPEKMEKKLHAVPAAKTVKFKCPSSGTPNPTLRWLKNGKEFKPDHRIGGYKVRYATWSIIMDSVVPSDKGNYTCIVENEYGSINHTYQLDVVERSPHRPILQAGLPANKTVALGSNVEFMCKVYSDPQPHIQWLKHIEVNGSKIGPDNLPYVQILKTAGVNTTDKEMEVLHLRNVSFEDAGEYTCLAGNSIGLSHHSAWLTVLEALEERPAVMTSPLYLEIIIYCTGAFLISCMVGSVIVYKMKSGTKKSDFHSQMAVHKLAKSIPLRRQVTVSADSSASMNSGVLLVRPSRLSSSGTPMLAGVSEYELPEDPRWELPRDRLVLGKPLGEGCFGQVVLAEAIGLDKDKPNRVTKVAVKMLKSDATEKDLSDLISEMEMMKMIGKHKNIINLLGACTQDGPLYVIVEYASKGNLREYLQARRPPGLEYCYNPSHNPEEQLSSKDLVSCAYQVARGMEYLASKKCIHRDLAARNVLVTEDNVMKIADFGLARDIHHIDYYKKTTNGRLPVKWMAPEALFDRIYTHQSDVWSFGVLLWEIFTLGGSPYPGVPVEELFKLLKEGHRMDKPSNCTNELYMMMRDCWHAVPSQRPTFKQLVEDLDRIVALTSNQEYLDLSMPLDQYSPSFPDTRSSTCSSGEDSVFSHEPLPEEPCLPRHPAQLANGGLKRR

B1: FGF2^ΔHBScore-FGF21^C-tail chimera (designed binder)
chain: MAAGSITTLPALPEDGGSGAFPPGHFKDPKRLYCKNGGFFLRIHPDGRVDGVREKSDPHIKLQLQAEERGVVSIKGVSANRYLAMKEDGRLLASKSVTDECFFFERLESNNYNTYRSRKYTSWYVALDQTGQYVLGSKTGPGQKAILFLPMPGLPPALPEPPGILAPQPPDVGSSDPLSMVGPSQGRSPSYAS
binding [1]: binds
binding [2]: binds

Reference: patent publication US20130331325A1
